No constants are given. Whether binding was seen depends on the method and setting. In cells and extracts the contact can be indirect. A result given as binding can be weak or reduced; the word gives no strength.
Molecular target: T1, SLC38A9 (human (endogenous in U87MG)) (UniProt Q8NBW4)
T1 sequence: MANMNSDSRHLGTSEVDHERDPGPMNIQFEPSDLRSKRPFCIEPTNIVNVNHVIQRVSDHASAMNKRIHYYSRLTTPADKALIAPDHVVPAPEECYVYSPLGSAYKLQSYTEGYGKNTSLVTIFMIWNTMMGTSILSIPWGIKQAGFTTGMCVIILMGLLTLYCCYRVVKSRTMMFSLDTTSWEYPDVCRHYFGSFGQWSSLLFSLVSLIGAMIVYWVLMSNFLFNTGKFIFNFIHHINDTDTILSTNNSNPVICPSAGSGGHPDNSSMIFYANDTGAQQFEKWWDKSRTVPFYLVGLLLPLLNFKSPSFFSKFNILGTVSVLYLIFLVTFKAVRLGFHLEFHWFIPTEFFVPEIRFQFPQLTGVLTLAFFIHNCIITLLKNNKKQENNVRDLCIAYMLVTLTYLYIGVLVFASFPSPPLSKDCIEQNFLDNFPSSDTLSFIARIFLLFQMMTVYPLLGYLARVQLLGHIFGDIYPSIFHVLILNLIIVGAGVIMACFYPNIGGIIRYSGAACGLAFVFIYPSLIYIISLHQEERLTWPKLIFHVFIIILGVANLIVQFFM
Assay: co-IP; SLC38A9 captured from U87MG lysate (400 μl) with 30 μg biotinylated anti-SLC38A9 antibody overnight at 4°C, then incubated with Tat or mutant Tat (10 μg in 90 μl TBS) overnight at 4°C; eluate immunoblotted for Tat; biotinylated isotype IgG as negative control; only the binder purified

HIV-1 Tat
binding: binds

— paper PMC12053450
